These are yes or no findings as the source states them, for the method shown. Binding seen in cells or lysates may run through a third protein. Some results given as binding are weak or reduced against the parent protein; the word gives no strength. Tags and fused reporters may be left off the sequences shown.
T1: Myc-VDR (Myc-fused vitamin D receptor) (UniProt P11473)
T1 sequence: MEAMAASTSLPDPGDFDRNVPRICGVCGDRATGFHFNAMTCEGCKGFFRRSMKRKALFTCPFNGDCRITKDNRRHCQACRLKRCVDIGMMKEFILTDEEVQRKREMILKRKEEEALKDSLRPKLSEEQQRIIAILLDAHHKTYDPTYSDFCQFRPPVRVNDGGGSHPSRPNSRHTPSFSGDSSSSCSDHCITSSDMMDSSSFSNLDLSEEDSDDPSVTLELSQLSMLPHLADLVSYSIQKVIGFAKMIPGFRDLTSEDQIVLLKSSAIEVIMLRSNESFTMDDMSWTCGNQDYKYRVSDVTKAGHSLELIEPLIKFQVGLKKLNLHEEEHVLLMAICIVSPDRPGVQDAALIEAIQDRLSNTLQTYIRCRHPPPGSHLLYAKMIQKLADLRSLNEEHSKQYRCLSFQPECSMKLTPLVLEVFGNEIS

Chains of the proteins cited; added tags and fusions are not shown.
UniProt P35222: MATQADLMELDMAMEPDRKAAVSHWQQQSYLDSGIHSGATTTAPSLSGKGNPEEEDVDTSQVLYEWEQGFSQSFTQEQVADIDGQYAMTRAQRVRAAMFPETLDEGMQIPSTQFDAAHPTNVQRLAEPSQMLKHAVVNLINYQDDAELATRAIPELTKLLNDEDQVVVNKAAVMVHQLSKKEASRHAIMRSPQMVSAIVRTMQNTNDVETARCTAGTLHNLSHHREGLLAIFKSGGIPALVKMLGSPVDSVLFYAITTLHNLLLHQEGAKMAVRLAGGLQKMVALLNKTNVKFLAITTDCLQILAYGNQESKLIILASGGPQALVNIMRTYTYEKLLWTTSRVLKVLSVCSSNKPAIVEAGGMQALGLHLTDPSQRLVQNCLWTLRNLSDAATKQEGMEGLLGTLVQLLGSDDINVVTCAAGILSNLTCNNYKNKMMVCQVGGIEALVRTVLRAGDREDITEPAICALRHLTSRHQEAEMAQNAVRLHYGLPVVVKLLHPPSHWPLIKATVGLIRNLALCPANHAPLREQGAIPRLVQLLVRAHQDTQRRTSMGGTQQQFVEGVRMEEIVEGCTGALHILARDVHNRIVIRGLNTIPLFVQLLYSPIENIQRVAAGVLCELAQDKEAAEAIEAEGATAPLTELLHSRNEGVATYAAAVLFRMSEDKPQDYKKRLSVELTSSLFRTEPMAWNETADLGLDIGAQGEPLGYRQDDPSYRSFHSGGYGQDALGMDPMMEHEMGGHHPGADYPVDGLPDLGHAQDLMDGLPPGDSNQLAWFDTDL


Tests used:
[1] = target: T1, Myc-VDR (Myc-fused vitamin D receptor); assay: co-IP; cells expressing Myc-VDR and β-catenin lysed; 5 mg of protein immunoprecipitated with 100 μg of Myc antibody (Protein A/G Immunoprecipitation Kit); β-catenin detected by Western blot
[2] = target: GST-β-catenin fusion protein (UniProt P35222); assay: pull-down; about 100 μg GST-β-catenin immobilised on 50 μL glutathione agarose (4 °C, 1 h); about 100 μg Myc-VDR fusion protein added, 4 °C overnight; eluted with 10 mM glutathione in PBS (pH 8.0); Western blot

Row | Molecule | binding [1] | binding [2]
1 | β-catenin (from UniProt P35222 1-781) | binds | –
2 | Myc-VDR (Myc-fused vitamin D receptor) (protein, UniProt P11473 1-427) MEAMAASTSLPDPGDFDRNVPRICGVCGDRATGFHFNAMTCEGCKGFFRRSMKRKALFTCPFNGDCRITKDNRRHCQACRLKRCVDIGMMKEFILTDEEVQRKREMILKRKEEEALKDSLRPKLSEEQQRIIAILLDAHHKTYDPTYSDFCQFRPPVRVNDGGGSHPSRPNSRHTPSFSGDSSSSCSDHCITSSDMMDSSSFSNLDLSEEDSDDPSVTLELSQLSMLPHLADLVSYSIQKVIGFAKMIPGFRDLTSEDQIVLLKSSAIEVIMLRSNESFTMDDMSWTCGNQDYKYRVSDVTKAGHSLELIEPLIKFQVGLKKLNLHEEEHVLLMAICIVSPDRPGVQDAALIEAIQDRLSNTLQTYIRCRHPPPGSHLLYAKMIQKLADLRSLNEEHSKQYRCLSFQPECSMKLTPLVLEVFGNEIS | – | binds

Source: publication PMC10091620
